# Results of single-concentration screens

Sequences of proteins named here, by UniProt entry; tags and fusion partners are left off. Residues count along the entry.
UniProt I6X8D2, whole entry: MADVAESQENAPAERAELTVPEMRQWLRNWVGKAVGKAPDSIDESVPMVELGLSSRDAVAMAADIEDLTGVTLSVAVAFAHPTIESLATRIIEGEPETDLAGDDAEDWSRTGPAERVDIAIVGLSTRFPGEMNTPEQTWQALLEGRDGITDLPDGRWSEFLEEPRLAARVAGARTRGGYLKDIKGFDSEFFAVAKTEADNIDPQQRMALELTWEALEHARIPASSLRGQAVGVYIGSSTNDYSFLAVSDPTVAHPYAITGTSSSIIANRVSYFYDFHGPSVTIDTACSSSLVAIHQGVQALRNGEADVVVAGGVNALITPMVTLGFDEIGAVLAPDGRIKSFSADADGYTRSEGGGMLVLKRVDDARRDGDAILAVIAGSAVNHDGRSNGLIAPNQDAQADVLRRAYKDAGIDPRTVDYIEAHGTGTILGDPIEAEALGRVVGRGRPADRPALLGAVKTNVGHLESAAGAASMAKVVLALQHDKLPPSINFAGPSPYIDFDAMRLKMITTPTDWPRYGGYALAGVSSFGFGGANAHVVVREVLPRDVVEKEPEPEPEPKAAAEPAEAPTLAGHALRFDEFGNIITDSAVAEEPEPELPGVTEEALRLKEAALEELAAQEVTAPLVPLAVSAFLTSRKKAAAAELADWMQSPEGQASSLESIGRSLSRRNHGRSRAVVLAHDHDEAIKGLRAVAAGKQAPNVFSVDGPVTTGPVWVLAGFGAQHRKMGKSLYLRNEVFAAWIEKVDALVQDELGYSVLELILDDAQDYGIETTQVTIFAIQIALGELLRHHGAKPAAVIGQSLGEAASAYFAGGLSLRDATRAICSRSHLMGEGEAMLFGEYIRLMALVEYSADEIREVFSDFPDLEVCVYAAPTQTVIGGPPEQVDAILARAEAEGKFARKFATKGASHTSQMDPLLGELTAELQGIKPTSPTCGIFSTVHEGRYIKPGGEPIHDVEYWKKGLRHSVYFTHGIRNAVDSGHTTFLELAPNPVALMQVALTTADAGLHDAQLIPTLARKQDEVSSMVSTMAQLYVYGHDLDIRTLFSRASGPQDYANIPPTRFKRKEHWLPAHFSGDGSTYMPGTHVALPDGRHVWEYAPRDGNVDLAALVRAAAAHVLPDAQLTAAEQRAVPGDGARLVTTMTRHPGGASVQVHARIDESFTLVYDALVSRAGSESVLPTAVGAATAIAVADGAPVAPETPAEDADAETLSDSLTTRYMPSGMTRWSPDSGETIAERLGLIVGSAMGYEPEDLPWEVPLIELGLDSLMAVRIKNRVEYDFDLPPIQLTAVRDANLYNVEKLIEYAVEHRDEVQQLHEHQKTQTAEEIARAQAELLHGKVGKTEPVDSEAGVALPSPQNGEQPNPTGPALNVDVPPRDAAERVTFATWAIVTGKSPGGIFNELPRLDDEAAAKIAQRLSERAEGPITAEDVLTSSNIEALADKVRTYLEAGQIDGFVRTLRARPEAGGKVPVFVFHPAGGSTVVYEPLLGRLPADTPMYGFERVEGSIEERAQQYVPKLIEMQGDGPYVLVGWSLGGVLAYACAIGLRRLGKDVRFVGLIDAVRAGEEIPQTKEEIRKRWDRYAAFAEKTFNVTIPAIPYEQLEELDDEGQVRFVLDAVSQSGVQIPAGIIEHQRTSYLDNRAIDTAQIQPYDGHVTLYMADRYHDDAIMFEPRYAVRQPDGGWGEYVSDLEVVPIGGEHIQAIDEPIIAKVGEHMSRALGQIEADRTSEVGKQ
UniProt Q4DA54, 1-478: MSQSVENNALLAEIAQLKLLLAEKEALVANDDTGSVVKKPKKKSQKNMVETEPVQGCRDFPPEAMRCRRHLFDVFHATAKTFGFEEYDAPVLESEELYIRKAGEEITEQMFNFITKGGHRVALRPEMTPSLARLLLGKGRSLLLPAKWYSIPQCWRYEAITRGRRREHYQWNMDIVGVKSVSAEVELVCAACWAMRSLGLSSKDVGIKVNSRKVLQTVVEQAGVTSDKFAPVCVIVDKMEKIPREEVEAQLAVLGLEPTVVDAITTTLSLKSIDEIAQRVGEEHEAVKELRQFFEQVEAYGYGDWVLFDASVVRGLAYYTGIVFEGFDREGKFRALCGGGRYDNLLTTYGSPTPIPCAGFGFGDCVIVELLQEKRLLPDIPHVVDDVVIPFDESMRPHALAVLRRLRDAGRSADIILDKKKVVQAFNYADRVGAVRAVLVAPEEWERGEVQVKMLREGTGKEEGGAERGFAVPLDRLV
UniProt P9WFT3, whole entry: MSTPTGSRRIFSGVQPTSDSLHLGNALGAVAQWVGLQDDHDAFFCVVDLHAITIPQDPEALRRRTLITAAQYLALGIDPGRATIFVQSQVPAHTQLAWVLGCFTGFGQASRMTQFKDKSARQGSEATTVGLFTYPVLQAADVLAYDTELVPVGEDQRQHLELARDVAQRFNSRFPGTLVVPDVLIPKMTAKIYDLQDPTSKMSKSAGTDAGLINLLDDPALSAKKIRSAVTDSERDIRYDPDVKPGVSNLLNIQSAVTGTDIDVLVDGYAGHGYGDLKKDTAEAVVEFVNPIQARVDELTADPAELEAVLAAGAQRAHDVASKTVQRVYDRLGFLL
UniProt P9WPC5, whole entry: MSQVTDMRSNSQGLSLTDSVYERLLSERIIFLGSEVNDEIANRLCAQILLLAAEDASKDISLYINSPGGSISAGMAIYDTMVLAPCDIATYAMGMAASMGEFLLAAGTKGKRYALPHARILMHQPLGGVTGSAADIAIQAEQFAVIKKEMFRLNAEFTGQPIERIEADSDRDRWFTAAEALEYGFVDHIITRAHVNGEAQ
UniProt P9WPC3, whole entry partner: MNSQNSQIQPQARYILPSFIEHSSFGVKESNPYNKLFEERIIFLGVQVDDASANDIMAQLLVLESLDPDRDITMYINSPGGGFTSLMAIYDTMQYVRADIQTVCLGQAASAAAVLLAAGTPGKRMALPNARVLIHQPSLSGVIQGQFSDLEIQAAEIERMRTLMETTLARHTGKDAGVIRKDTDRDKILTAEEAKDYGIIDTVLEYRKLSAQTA

Data taken from ChEMBL document CHEMBL3988442, “University of Dundee, Small-Polar-MMV Screening Library” (2021).

Pks13 thioesterase: 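Enzyme assay of the thioesterase domain of polyketide synthase 13; the read-out is not stated. Target: Polyketide synthase Pks13, Mycobacterium tuberculosis (UniProt I6X8D2). Tested at 30 µM. The record gives no direction; the compounds picked for IC50 retests had high values, so higher reads as stronger inhibition. Size under these conditions: about 67,000 compounds, about 300 of them at 50% or above in at least one test.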
TcHisRS: 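Enzyme assay of histidyl-tRNA synthetase; the read-out is not stated. Target: Histidine-tRNA ligase, Trypanosoma cruzi CL Brener (UniProt Q4DA54). Concentration: 30 µM. Direction is inferred from retests: higher values go with stronger inhibition. Of about 69,000 compounds tested this way, about 31 (0.045%) reached 50% or more in at least one test.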
MtTrpRS: 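Tryptophan-tRNA ligase, Mycobacterium tuberculosis (UniProt P9WFT3). Enzyme assay of tryptophanyl-tRNA synthetase; the read-out is not stated. Compounds at 10 µM. Higher most likely means stronger inhibition; the record gives no direction and few retests gave an IC50. About 65,000 compounds were tested under these conditions; 0.098% (about 64) showed 50% or more at least once.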
ClpP1P2: 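ClpP1P2, Mycobacterium tuberculosis (UniProt P9WPC5 and UniProt P9WPC3). Protease assay of ClpP1P2, read by the AMC dye that it sets free. Concentration: 50 µM. Higher reads as stronger inhibition, judged from the few compounds that gave an IC50. Most other retested compounds had strongly negative values. About 69,000 compounds were tested under these conditions; 0.015% (about 10) showed 50% or more at least once.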

Results are given as percent effect.
The controls that fix the scale are not given in the record; negative values are as filed.
This is an unselected part of the compounds tested.
A dash means the value is not listed here; it may have been measured.

SMILES | Pks13 thioesterase | TcHisRS | MtTrpRS | ClpP1P2
CCn1nc(C)c2nnn(CC(=O)Nc3ccccc3)c(=O)c21 | -11.04% | -0.8696% | -0.5181% | 6.646%
NCCCC(=O)NCC1(O)CCN(c2ccnc3cccnc23)C1 (stereo unspecified) | - | 5.303% | -3.732% | -3.868%
CNC(=O)N1CCC2(CC1)CN(C(C)C)Cc1cc(F)ccc12 | 12.04% | 11.04% | -1.647% | 0.4273%
CC(C)C(=O)NC1CCCN(C(=O)c2ccc(O)c(Cl)c2)C1 (stereo unspecified) | 0.431% | 6.59% | 0.8992% | -4.158%
CN1N=C(c2nc(Cc3cccc(Br)c3)no2)CCC1=O | -17.64% | 6.186% | -2.096% | -5.622%
O=C(CC1CC2(CCNCC2)c2ccccc21)NCC1CC1 (stereo unspecified) | -1.116% | -0.5025% | - | 3.414%
c1cncc(N2CCOCC3(CCCN(Cc4cccs4)C3)C2)c1 (stereo unspecified) | -42.56% | 4.972% | 4.969% | 3.831%
Cc1ccccc1N1CC2(CCN(S(=O)(=O)C3CC3)C2)CC1=O (stereo unspecified) | -0.2691% | 3.759% | -1.756% | 12.98%
O=C1COC2(CCN(Cc3cccs3)CC2)CN1c1cccnc1 | -4.511% | 11.06% | 3.592% | 5.7%
CC(C)[C@@H]1CN(CC(=O)NCc2ccco2)C[C@H]1NS(=O)(=O)N(C)C | -41.95% | 7.895% | -2.27% | 3.074%
CC(=O)NC1CCCN(c2ccc(C#N)cc2C(F)(F)F)C1 (stereo unspecified) | -28.36% | 1.604% | 1.252% | -2.321%
COc1ccc(F)cc1S(=O)(=O)N1CCC(OC)CC1 | -38.91% | 8.247% | -3.267% | 4.09%
CCN(CC)C(=O)CNC(=O)c1c[nH]c2ccc(OC)cc12 | -18.03% | 2.174% | -1.009% | 3.293%
CCN(Cc1nc(C)no1)C(=O)C1CC(=O)N(Cc2cccnc2)C1 (stereo unspecified) | -17.41% | -1.288% | 1.708% | -4.544%
CCC(CNC1CCN(C(C)=O)CC1)Oc1ccccc1Cl (stereo unspecified) | -5.754% | 0.6452% | -2.909% | 14.48%
CC(=O)N1CCC2(CC1)CN(C(=O)c1ccc3c(c1)OCCO3)C2 | -33.34% | 8.738% | -2.344% | -17.93%
Cc1[nH]nc(CCC(=O)NCC2COc3ccccc3C2)c1C (stereo unspecified) | -17.1% | 6.627% | 2.781% | 2.04%
CC(=O)N1CCN(C(=O)C[C@@H]2C[C@@H](C(C)C)[C@H](CC#N)C=C2C)CC1 | 11.89% | 1.98% | -0.2259% | -2.072%
Cc1cc(C)nc(CCNc2nccc(CCC(F)(F)F)n2)n1 | -7.283% | -3.279% | 12.91% | -13.48%
CS(=O)(=O)N(Cc1ccon1)c1ccc2c(c1)OCO2 | -18.8% | 0.5236% | -0.3018% | -1.926%
Cc1cc(C)c(-n2cc(CCO)cn2)cc1C | -10.57% | 2.4% | -1.424% | 2.649%
COCCC1(C(=O)O)CCCN(CC(=O)NCCc2ccccc2)C1 (stereo unspecified) | -6.944% | 5.063% | -2.169% | -11.79%
Cc1cc(C(=O)NC2CCN(CC(N)=O)CC2)nn1C(C)(C)C | -10.01% | 11% | -2.72% | 4.708%
O=C(CN1CCCCC1Cn1cncn1)Nc1ccncc1 (stereo unspecified) | 6.512% | 5.804% | 0.5092% | -5.947%
c1cncc(O[C@H]2CC[C@H]3[C@H]2OCCN3C2CCCC2)c1 | 0.04958% | 5.263% | 1.051% | -12.17%
Cc1nccn1-c1cc(CNC(=O)C2CCC(=O)NC2)ccn1 (stereo unspecified) | 9.382% | 1.031% | -0.3915% | -6.126%
Cc1cc(C(=O)N(C)C2CCN(C)C2)c2ccc(F)cc2n1 (stereo unspecified) | -27.49% | 1.212% | 0.618% | -2.511%
CCC[C@]12CN3C[C@](C)(CN(C1)C3c1[nH]c(=O)[nH]c(=O)c1C)C2=O (stereo partly specified) | -4.429% | 5% | 0.5693% | -13.73%
Cc1ccc(C(=O)Nc2ccc(N(C)C)cn2)n1C | -12.55% | 7.895% | -1.938% | -9.171%
CCc1ncnc(N(C)CC2CCCCO2)c1F (stereo unspecified) | -17.74% | 6.349% | 3.641% | -3.098%
COCCc1noc(CN2CCCC2Cn2cc(C)cn2)n1 (stereo unspecified) | -8.724% | -0.3774% | 4.476% | -5.35%
COc1cccc(NC(=O)C2CC(=O)n3cnnc3S2)c1 (stereo unspecified) | -94.55% | 3.093% | -3.695% | 5.645%
CN1CCN(C(=O)CCCc2ccccn2)c2ccc(F)cc21 | -35.55% | 3.665% | 4.263% | 11.83%
O=C(NCCNc1cc(N2CCCC2)cnn1)Nc1ccccc1F | 1.276% | 6% | -5.25% | -7.34%
O=C(c1cnccn1)N1CCc2ncc(CN3CCOCC3)n2CC1 | -6.694% | 12.75% | -2.815% | -5.079%
CN1CCC2(CCN(S(=O)(=O)c3ccc(-c4cnco4)s3)CC2)C1 | -2.674% | 16.74% | 2.441% | -5.016%
COCCN1CCC2(COCc3c(C)nc(N4CCOCC4)nc32)C1 (stereo unspecified) | -20.57% | 7.609% | 0.5947% | -1.995%
CC1Cc2ccccc2N1Cc1occc1C(=O)O (stereo unspecified) | -2.541% | 2.041% | -1.347% | 8.268%
CN(C)C(=O)N1CCN(c2cc(N3CCCC3CO)ncn2)CC1 (stereo unspecified) | -29.06% | 1.657% | -5.215% | -4.687%
CC(C)C(=O)N1CC[C@H]2N(C)CC[C@@]2(C(=O)Nc2cccnc2)CC1 | -4.952% | 4.42% | - | 5.873%
CN1C[C@@H](C(=O)NC(C)(C)C)[C@@]2(CCc3ccccc3C(=O)N2)C1 | 1.71% | 11.11% | -4.722% | -14.7%
Cc1cccc(C2CCCN(C(=O)CN3CCOC3=O)C2)c1 (stereo unspecified) | -32.56% | 0% | 1.868% | 0.2364%
Cc1noc(C)c1C(C)C(=O)N1CCCN(Cc2cscn2)CC1 (stereo unspecified) | -7.565% | 4.142% | -5.587% | -13.67%
CCc1cc(NC2CCN(CC(N)=O)CC2)nc(N2CCCCC2)n1 | -10.05% | 5.641% | -0.6606% | 1.224%
CS(=O)(=O)c1ccc(O[C@H]2COCCN(C(=O)c3ccno3)C2)cc1 | -25.37% | 11.96% | -3.718% | -5.569%
CCc1nc(-c2ccc(NC(=O)N3CCOCC3)cc2)no1 | 1.365% | 8.537% | -2.931% | -11.53%
Cn1c(C(=O)NS(C)(=O)=O)ccc1-c1ccccc1 | -9.807% | 10.92% | -7.143% | -1.017%
CC(C)N1CCCC2(CCN(c3nccc(C(F)(F)F)n3)C2)C1=O (stereo unspecified) | -7.915% | 5.978% | -6.48% | -14.53%
CN(C)CCN1C(=O)CCC12CCCN(C(=O)C1CC=CC1)CC2 (stereo unspecified) | -12.85% | 6.796% | -0.7267% | 4.254%
O=S(=O)(NCC1(c2cccs2)CCOCC1)c1cccnc1 | -11.35% | 7.937% | 2.592% | -1.756%
CCN(CC)[C@@H]1CN(C(=O)c2ccc(C#N)cc2)[C@@H]2CCCO[C@H]12 | - | 1.227% | -1.066% | 1.897%
CC(C)(CN)NS(=O)(=O)c1cccc(F)c1F | -11.1% | 8.374% | -0.2742% | -1.17%
Cc1cccc(C(C)CNS(=O)(=O)CCCC#N)c1 (stereo unspecified) | 50.71% | 0.5525% | 3.604% | -2.494%
CCN1CCC(CNC(=O)Nc2cccnc2OC)CC1 | -10.84% | 7.143% | -6.88% | 4.097%
COc1cc(C)c(C)cc1S(=O)(=O)N(C)CC(=O)Nc1ccon1 | -8.089% | 1.288% | -0.7322% | -7.74%
COCC1c2nnn(CC3CC3)c2CCN1C(=O)c1cnccn1 (stereo unspecified) | -19.22% | 3.261% | -4.503% | 0.8701%
O=C(CCSc1ccc(F)cc1)N1CCN(c2cnccn2)CC1 | -5.668% | 0.6024% | 3.311% | -5.484%
Cc1cnn(CC2CCCN2Cc2c(C)noc2C)c1 (stereo unspecified) | -13.79% | 2.941% | 8.84% | -25.72%

For reference, 3 entries once more:

SMILES	Pks13 thioesterase	TcHisRS	MtTrpRS	ClpP1P2
Cn1c(C(=O)NS(C)(=O)=O)ccc1-c1ccccc1	-9.807%	10.92%	-7.143%	-1.017%
Cc1cnn(CC2CCCN2Cc2c(C)noc2C)c1 (stereo unspecified)	-13.79%	2.941%	8.84%	-25.72%
CNC(=O)N1CCC2(CC1)CN(C(C)C)Cc1cc(F)ccc12	12.04%	11.04%	-1.647%	0.4273%